We go through two molecules from article PMC7600810.

Protein sequences, listed by entry. Tags and fused reporters are not part of them.
UniProt Q9UBN7: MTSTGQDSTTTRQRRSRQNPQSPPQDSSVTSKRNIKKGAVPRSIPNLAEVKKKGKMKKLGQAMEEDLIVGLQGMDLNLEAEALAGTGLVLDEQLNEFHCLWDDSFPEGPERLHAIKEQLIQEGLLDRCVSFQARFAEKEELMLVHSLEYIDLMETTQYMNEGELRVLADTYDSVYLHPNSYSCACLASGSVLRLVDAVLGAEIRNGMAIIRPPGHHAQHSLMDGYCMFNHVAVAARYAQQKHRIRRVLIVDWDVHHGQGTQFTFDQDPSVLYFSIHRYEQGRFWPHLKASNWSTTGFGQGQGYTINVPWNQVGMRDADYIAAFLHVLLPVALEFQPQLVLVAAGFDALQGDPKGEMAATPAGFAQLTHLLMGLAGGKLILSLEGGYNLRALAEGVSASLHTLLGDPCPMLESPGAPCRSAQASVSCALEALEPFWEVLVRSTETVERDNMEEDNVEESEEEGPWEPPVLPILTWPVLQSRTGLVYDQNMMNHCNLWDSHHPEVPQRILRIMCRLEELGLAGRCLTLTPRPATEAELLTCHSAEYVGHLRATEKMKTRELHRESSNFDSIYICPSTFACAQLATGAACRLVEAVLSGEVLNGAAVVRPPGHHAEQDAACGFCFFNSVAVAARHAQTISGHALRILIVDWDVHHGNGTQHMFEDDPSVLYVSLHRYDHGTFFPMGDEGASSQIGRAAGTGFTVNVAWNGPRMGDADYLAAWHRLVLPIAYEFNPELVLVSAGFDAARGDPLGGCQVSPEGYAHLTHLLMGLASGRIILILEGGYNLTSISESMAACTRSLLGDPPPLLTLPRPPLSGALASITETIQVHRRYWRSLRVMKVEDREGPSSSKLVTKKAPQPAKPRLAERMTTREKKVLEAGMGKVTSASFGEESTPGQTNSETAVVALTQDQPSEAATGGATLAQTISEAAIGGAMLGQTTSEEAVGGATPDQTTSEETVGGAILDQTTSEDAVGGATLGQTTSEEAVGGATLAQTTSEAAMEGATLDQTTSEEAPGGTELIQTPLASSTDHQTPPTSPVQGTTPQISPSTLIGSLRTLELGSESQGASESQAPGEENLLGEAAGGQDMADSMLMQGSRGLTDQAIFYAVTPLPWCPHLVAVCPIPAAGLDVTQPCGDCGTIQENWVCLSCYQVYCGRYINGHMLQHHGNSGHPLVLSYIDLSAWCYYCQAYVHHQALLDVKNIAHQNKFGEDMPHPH

This experiment addresses Flag-HDAC6, full length (1-1215) (UniProt Q9UBN7). Put plainly: co-IP; Flag-tagged HDAC6 constructs and Myc-tagged Chk1 constructs co-transfected into 293T cells, 48 h; lysates pulled down for Flag.

No constants are given. Whether binding was seen depends on the method and setting. In cells and extracts the contact can be indirect. Some binding calls cover weakened binding; strength is not graded here. Where a sequence is shown, tags or fusion partners need not be part of it.

B1: Myc-Chk1 (265–476) (domain or fragment, UniProt O14757 265-476)
chain: YNKPLKKGAKRPRVTSGGVSESPSGFSKHIQSNLDFSPVNSASSEENVKYSSSQPEPRTGLSLWDTSPSYIDKLVQGISFSQPTCPDHMLLNSQLLGTPGSSQNPWQRLVKRMTRFFTKLDADKSYQCLKETCEKLGYQWKKSCMNQVTISTTDRRNNKLIFKVNLLEMDDKILVDFRLSKGDGLEFKRHFLKIKGKLIDIVSSQKIWLPAT
Turning to B1, the binding entry is “binds”.

B2: Myc-Chk1(1–264) (domain or fragment, UniProt O14757 1-264)
chain: MAVPFVEDWDLVQTLGEGAYGEVQLAVNRVTEEAVAVKIVDMKRAVDCPENIKKEICINKMLNHENVVKFYGHRREGNIQYLFLEYCSGGELFDRIEPDIGMPEPDAQRFFHQLMAGVVYLHGIGITHRDIKPENLLLDERDNLKISDFGLATVFRYNNRERLLNKMCGTLPYVAPELLKRREFHAEPVDVWSCGIVLTAMLAGELPWDQPSDSCQEYSDWKEKKTYLNPWKKIDSAPLALLHKILVENPSARITIPDIKKDRW
For B2, the binding entry is “binds”.
